Assay results from ChEMBL document CHEMBL4316593 (Eur J Med Chem, 2019).
The source gives many values for each of these; only a part stands here.

Tests used:
Type in all cases: cell-based
Conditions in all cases: U-87MG ATCC
[1] = Inhibition of RTK/PI3K/AKT/mTOR signaling in human U87 cells assessed as down regulation of DNAH3 gene expression at cytotoxic IC50 measured after 48 hrs relative to control
[2] = Inhibition of RTK/PI3K/AKT/mTOR signaling in human U87 cells assessed as down regulation of RAD51AP1 gene expression at cytotoxic IC50 measured after 48 hrs relative to control
[3] = Inhibition of RTK/PI3K/AKT/mTOR signaling in human U87 cells assessed as down regulation of ZNF823 gene expression at cytotoxic IC50 measured after 48 hrs relative to control
[4] = Inhibition of RTK/PI3K/AKT/mTOR signaling in human U87 cells assessed as down regulation of EGR2 gene expression at cytotoxic IC50 measured after 48 hrs relative to control
[5] = Inhibition of RTK/PI3K/AKT/mTOR signaling in human U87 cells assessed as down regulation of CSRNP1 gene expression at cytotoxic IC50 measured after 48 hrs relative to control
[6] = Inhibition of RTK/PI3K/AKT/mTOR signaling in human U87 cells assessed as down regulation of GINS1 gene expression at cytotoxic IC50 measured after 48 hrs relative to control
[7] = Inhibition of RTK/PI3K/AKT/mTOR signaling in human U87 cells assessed as down regulation of TNFAIP3 gene expression at cytotoxic IC50 measured after 48 hrs relative to control
[8] = Inhibition of RTK/PI3K/AKT/mTOR signaling in human U87 cells assessed as down regulation of ULK1 gene expression at cytotoxic IC50 measured after 48 hrs relative to control
[9] = Inhibition of RTK/PI3K/AKT/mTOR signaling in human U87 cells assessed as down regulation of NCAPG gene expression at cytotoxic IC50 measured after 48 hrs relative to control
[10] = Inhibition of RTK/PI3K/AKT/mTOR signaling in human U87 cells assessed as down regulation of TGFBR2 gene expression at cytotoxic IC50 measured after 48 hrs relative to control
[11] = Inhibition of RTK/PI3K/AKT/mTOR signaling in human U87 cells assessed as down regulation of CSNK2A2 gene expression at cytotoxic IC50 measured after 48 hrs relative to control
[12] = Inhibition of RTK/PI3K/AKT/mTOR signaling in human U87 cells assessed as down regulation of IP6K1 gene expression at cytotoxic IC50 measured after 48 hrs relative to control
[13] = Inhibition of RTK/PI3K/AKT/mTOR signaling in human U87 cells assessed as down regulation of PRKAB2 gene expression at cytotoxic IC50 measured after 48 hrs relative to control
[14] = Inhibition of RTK/PI3K/AKT/mTOR signaling in human U87 cells assessed as down regulation of C14orf2 gene expression at cytotoxic IC50 measured after 48 hrs relative to control
[15] = Inhibition of RTK/PI3K/AKT/mTOR signaling in human U87 cells assessed as down regulation of MYL12B gene expression at cytotoxic IC50 measured after 48 hrs relative to control
[16] = Inhibition of RTK/PI3K/AKT/mTOR signaling in human U87 cells assessed as up regulation of NUPR1 gene expression at cytotoxic IC50 measured after 48 hrs relative to control
[17] = Inhibition of RTK/PI3K/AKT/mTOR signaling in human U87 cells assessed as up regulation of SLC5A1 gene expression at cytotoxic IC50 measured after 48 hrs relative to control
[18] = Inhibition of RTK/PI3K/AKT/mTOR signaling in human U87 cells assessed as up regulation of TNS4 gene expression at cytotoxic IC50 measured after 48 hrs relative to control
[19] = Inhibition of RTK/PI3K/AKT/mTOR signaling in human U87 cells assessed as up regulation of SOX12 gene expression at cytotoxic IC50 measured after 48 hrs relative to control
[20] = Inhibition of RTK/PI3K/AKT/mTOR signaling in human U87 cells assessed as up regulation of G protein-coupled receptor class C group 5 member A gene expression at cytotoxic IC50 measured after 48 hrs relative to control
[21] = Inhibition of RTK/PI3K/AKT/mTOR signaling in human U87 cells assessed as up regulation of family with sequence similarity 171 member A1 gene expression at cytotoxic IC50 measured after 48 hrs relative to control
[22] = Inhibition of RTK/PI3K/AKT/mTOR signaling in human U87 cells assessed as up regulation of anoctamin 9 gene expression at cytotoxic IC50 measured after 48 hrs relative to control
[23] = Inhibition of RTK/PI3K/AKT/mTOR signaling in human U87 cells assessed as up regulation of heparan sulfate 6-O-sulfotransferase 2 gene expression at cytotoxic IC50 measured after 48 hrs relative to control
[24] = Inhibition of RTK/PI3K/AKT/mTOR signaling in human U87 cells assessed as up regulation of cortexin 1 gene expression at cytotoxic IC50 measured after 48 hrs relative to control
[25] = Inhibition of RTK/PI3K/AKT/mTOR signaling in human U87 cells assessed as up regulation of arrestin domain containing 2 gene expression at cytotoxic IC50 measured after 48 hrs relative to control
[26] = Inhibition of RTK/PI3K/AKT/mTOR signaling in human U87 cells assessed as up regulation of PHD finger protein 1 gene expression at cytotoxic IC50 measured after 48 hrs relative to control
[27] = Inhibition of RTK/PI3K/AKT/mTOR signaling in human U87 cells assessed as up regulation of ATP binding cassette subfamily C member 1 gene expression at cytotoxic IC50 measured after 48 hrs relative to control
[28] = Inhibition of RTK/PI3K/AKT/mTOR signaling in human U87 cells assessed as up regulation of UBE2K gene expression at cytotoxic IC50 measured after 48 hrs relative to control
[29] = Inhibition of RTK/PI3K/AKT/mTOR signaling in human U87 cells assessed as up regulation of TRIP10 gene expression at cytotoxic IC50 measured after 48 hrs relative to control
[30] = Inhibition of RTK/PI3K/AKT/mTOR signaling in human U87 cells assessed as up regulation of ATP9A gene expression at cytotoxic IC50 measured after 48 hrs relative to control
[31] = Inhibition of RTK/PI3K/AKT/mTOR signaling in human U87 cells assessed as up regulation of RAD23B gene expression at cytotoxic IC50 measured after 48 hrs relative to control
[32] = Inhibition of RTK/PI3K/AKT/mTOR signaling in human U87 cells assessed as up regulation of RPS3A gene expression at cytotoxic IC50 measured after 48 hrs relative to control

With `CC(=O)C(=NNc1ccccc1C#N)C(C)=O` as the compound, how does the log2FC [1] read?
Its log2FC is -4.59.

What about the log2FC [2] of the same compound?
Its log2FC is -1.65.

What about the log2FC [3] of the same compound?
Its log2FC is -1.59.

And the log2FC [4]?
The log2FC was -1.36.

What about the log2FC [5] of the same compound?
The log2FC was -1.25.

And the log2FC [6]?
Its log2FC is -1.2.

And the log2FC [7]?
Its log2FC is -1.15.

What about the log2FC [8] of the same compound?
The log2FC was -1.15.

And the log2FC [9]?
Its log2FC is -1.04.

What about the log2FC [10] of the same compound?
The log2FC was -0.893.

What about the log2FC [11] of the same compound?
Its log2FC is -0.864.

What about the log2FC [12] of the same compound?
The log2FC was -0.759.

And the log2FC [13]?
The log2FC was -0.692.

What about the log2FC [14] of the same compound?
The log2FC was -0.513.

And the log2FC [15]?
The log2FC was -0.377.

And the log2FC [16]?
The log2FC was 4.87.

What about the log2FC [17] of the same compound?
Its log2FC is 3.98.

What about the log2FC [18] of the same compound?
The log2FC was 2.67.

And the log2FC [19]?
The log2FC was 2.36.

And the log2FC [20]?
The log2FC was 1.41.

What about the log2FC [21] of the same compound?
The log2FC was 1.22.

What about the log2FC [22] of the same compound?
Its log2FC is 1.1.

And the log2FC [23]?
The log2FC was 0.972.

What about the log2FC [24] of the same compound?
Its log2FC is 0.96.

What about the log2FC [25] of the same compound?
The log2FC was 0.89.

What about the log2FC [26] of the same compound?
The log2FC was 0.814.

What about the log2FC [27] of the same compound?
Its log2FC is 0.782.

What about the log2FC [28] of the same compound?
Its log2FC is 0.593.

And the log2FC [29]?
Its log2FC is 0.587.

What about the log2FC [30] of the same compound?
Its log2FC is 0.53.

What about the log2FC [31] of the same compound?
Its log2FC is 0.489.

And the log2FC [32]?
Its log2FC is 0.368.
